Values from PubChem BioAssay AID743454 (Peter MacCallum Cancer Centre, 2014).
Screen: 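Search for knock-downs that restore vorinostat killing in resistant colon cancer cells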 (primary screen). System: human HCT116-VR colon cancer cells, selected for vorinostat resistance. Knock-down reagent: siRNA pool against human genes, 40 nM siRNA pool. Duration: vorinostat for 24 h, read-out about 72 h after transfection. Challenge: vorinostat at 2.5 µM final. Detection: 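Cell viability by CellTiter-Fluor and caspase 3/7 activity by luminescence, each scaled to mock wells per plate, duplicates averaged, then robust z-scored over all plates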. Reading the numbers: viability robust z-score: higher = more viable cells than screen typical; caspase robust z-score: higher = more caspase 3/7 activity than screen typical. Call rule: 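a knock-down is a hit when classed RV1 or RV2 for lowered viability, or CA1 or CA2 for caspase activation; those lethal without drug were dropped; hits were retested singly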.
Here is a random part of about 18,000 deposited reagents. 450 of all reagents (2.5%) were called active. 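Single biological run; no consistent viability z cut-off exists, so the class columns, not z-scores, define the calls.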 Unmarked entries are inactive.

| gene | viability hit class | caspase hit class | viability robust z-score | caspase robust z-score |
| --- | --- | --- | --- | --- |
| PCDHB15 (protocadherin beta 15) | no change | no change | -0.79 | -1.01 |
| XYLT2 (xylosyltransferase 2) | no change | no change | 0.7 | -0.68 |
| HOMER1 (homer scaffold protein 1) | no change | no change | 0.55 | -0.78 |
| PLIN5 (perilipin 5) | no change | no change | -0.12 | 0.42 |
| RALB (RAS like proto-oncogene B) | no change | no change | -4.42 | -1.25 |
| KIAA1755 | no change | no change | -0.3 | -0.98 |
| KLF2 (KLF transcription factor 2) | no change | no change | -0.71 | -0.15 |
| ATP6V0D1 (ATPase H+ transporting V0 subunit d1) | no change | no change | -1.82 | -0.28 |
| IL17RA (interleukin 17 receptor A) | no change | no change | -0.7 | 0.84 |
| CENPW (centromere protein W) | no change | no change | -0.59 | 0.88 |
| PDCD2L (programmed cell death 2 like) | no change | no change | -0.88 | -0.41 |
| RCHY1 (ring finger and CHY zinc finger domain containing 1) | no change | no change | -1.5 | -0.27 |
| C1orf116 (chromosome 1 open reading frame 116) | no change | no change | -0.61 | 0.4 |
| SEC31A (SEC31 homolog A, COPII component) | no change | no change | 1.46 | -0.42 |
| PKP1 (plakophilin 1) | no change | no change | 0.11 | 0.14 |
| ZUP1 (zinc finger containing ubiquitin peptidase 1) | no change | no change | -1.95 | -0.28 |
| SOX3 (SRY-box transcription factor 3) | no change | no change | 0.08 | -0.78 |
| NUTM1 (NUT midline carcinoma family member 1) | no change | no change | -0.43 | -0.7 |
| MAN2B2 (mannosidase alpha class 2B member 2) | no change | no change | 1.44 | -1.15 |
| RAB39B (RAB39B, member RAS oncogene family) | no change | no change | 1.32 | -0.39 |
| PPIF (peptidylprolyl isomerase F) | no change | no change | -0.81 | 0.65 |
| RCN3 (reticulocalbin 3) | no change | no change | -0.76 | 1.84 |
| FAM24A (family with sequence similarity 24 member A) | no change | no change | 1.82 | -0.22 |

In a second layout: results already given
HOMER1 (homer scaffold protein 1) — viability hit class: no change; caspase hit class: no change; viability robust z-score: 0.55; caspase robust z-score: -0.78
PLIN5 (perilipin 5) — viability hit class: no change; caspase hit class: no change; viability robust z-score: -0.12; caspase robust z-score: 0.42
